The list does not hold the whole screen: it gathers tests that were run many times, whatever their T/C, doses with no T/C, and many T/C values between a quarter and a half above the control. Further doses and runs are listed elsewhere. T/C: endpoint of the treated group in % of that of the vehicle group. Some doses have a count of surviving animals in place of a T/C: the source files T/C as zero there, which appears to mark a toxic dose or a test without result, not a measured value. Some doses without a T/C left all or most animals alive at the check, yet need not have been tolerated: the source hardly ever lists a survival T/C far under the control, and the zero likely stands for such cases as well. Counts of survivors are from the toxicity check (mostly the fifth day) where no day follows; animals may have died later. Schedule codes are those of the source, taken here to give the interval after Q, in days (D) or hours (H), and the number of doses after X. Some structures stand for samples that the source files as different forms (salt, stereo form or complex); doses refer to the form tested. Some entries hold several experiments; the results are listed from low to high. For survival time, this PubChem deposit counts one and a half times the control or more as active, and values a quarter to a half above the control carry no call in these data; other NCI protocols may use other cut-offs. Some T/C values carry the count of animals alive at the toxicity check (mostly the fifth day); without a count, all were alive then.
System: P388 leukemia ip, CD2F1 mice, survival T/C
Assay: NCI In Vivo Anticancer Drug Screen. Data for tumor model P388 Leukemia (intraperitoneal) in CD2F1 (CDF1) mice
Details: T/C endpoint: median survival time, higher T/C = longer survival
[1] = dose: 50.0 mg/kg/injection, schedule: Q01DX005 (ip), vehicle: saline with Tween-80
[2] = dose: 100.0 mg/kg/injection, schedule: Q01DX005 (ip), vehicle: saline with Tween-80
[3] = dose: 200.0 mg/kg/injection, schedule: Q01DX005 (ip), vehicle: saline with Tween-80
[4] = dose: 240.0 mg/kg/injection, schedule: Q01DX005 (ip), vehicle: Klucel (hydroxypropylcellulose) (HPC)
[5] = dose: 6.25 mg/kg/injection, schedule: Q01DX005 (ip), vehicle: saline
[6] = dose: 12.5 mg/kg/injection, schedule: Q01DX005 (ip), vehicle: saline
[7] = dose: 25.0 mg/kg/injection, schedule: Q01DX005 (ip), vehicle: saline
[8] = dose: 50.0 mg/kg/injection, schedule: Q01DX005 (ip), vehicle: saline
[9] = dose: 100.0 mg/kg/injection, schedule: Q01DX005 (ip), vehicle: saline
[10] = dose: 200.0 mg/kg/injection, schedule: Q01DX005 (ip), vehicle: saline
[11] = dose: 100.0 mg/kg/injection, schedule: Q01DX009 (ip), vehicle: saline with Tween-80
[12] = dose: 100.0 mg/kg/injection, schedule: Q01DX009 (ip), vehicle: saline
[13] = dose: 200.0 mg/kg/injection, schedule: Q01DX009 (ip), vehicle: saline
[14] = dose: 200.0 mg/kg/injection, schedule: Q01DX009 (ip), vehicle: Klucel (hydroxypropylcellulose) (HPC)
[15] = dose: 240.0 mg/kg/injection, schedule: Q01DX005 (ip), vehicle: saline with Tween-80
[16] = dose: 25.0 mg/kg/injection, schedule: Q01DX005 (ip), vehicle: saline with Tween-80
[17] = dose: 50.0 mg/kg/injection, schedule: Q01DX009 (ip), vehicle: saline with Tween-80

For `O=C1C=CC(=O)c2c1c(O)c1ccccc1c2Cl`, the survivor count [1] was 6 of 6, the survivor count [2] was 6 of 6 and the survivor count [3] was 6 of 6.

In the case of `CC1C(=O)OC2C1CCC1(C)C3(C)C(=O)C=CC213` (configuration not stated), the survivor count (dose: 120.0 mg/kg/injection, schedule: Q01DX005 (ip), vehicle: Klucel (hydroxypropylcellulose) (HPC)) is reported as 4 of 6 and the survivor count [4] is reported as 0 of 6.

`Clc1cc[c]([Sn]([Cl])([O][Sn]([Cl])([c]2ccc(Cl)cc2)[c]2ccc(Cl)cc2)[c]2ccc(Cl)cc2)cc1` was tested, and the T/C [5] was 145 % of control, the T/C [6] was 146 % of control and the T/C [7] was 129 % of control. For the same compound, the survivor count [8] was 4 of 6, the survivor count [9] was 3 of 6 and the survivor count [10] was 0 of 6.

With `c1ccc(-c2c3ccccc3c[n+]3ccccc23)cc1` the survivor count (dose: 12.5 mg/kg/injection, schedule: Q01DX009 (ip), vehicle: Klucel (hydroxypropylcellulose) (HPC)) was 0 of 6 and the survivor count (dose: 25.0 mg/kg/injection, schedule: Q01DX009 (ip), vehicle: Klucel (hydroxypropylcellulose) (HPC)) was 0 of 6.

For `CC1CC[N-]CC1.CC1CC[N-]CC1.CC1CC[N-]CC1.CC1CC[N-]CC1.[Cl][Rh][Cl]`, the survivor count [11] was 6 of 6.

In the case of `CCCN1CCc2cccc3c2C1Cc1ccc(O)c(O)c1-3` (configuration not stated), the T/C [11] is reported as 127 % of control, the T/C [12] is reported as 126 % of control and the survivor count [13] is reported as 3 of 3.

For `CN(C/C=C/CN(C)N=O)N=O`, the T/C (dose: 50.0 mg/kg/injection, schedule: Q01DX009 (ip), vehicle: Klucel (hydroxypropylcellulose) (HPC)) was 144 % of control, the survivor count (dose: 100.0 mg/kg/injection, schedule: Q01DX009 (ip), vehicle: Klucel (hydroxypropylcellulose) (HPC)) was 6 of 6 and the survivor count [14] was 2 of 6.

`Cc1ccc(/C=C/C(=O)C(CN(C)C)CN(C)C)cc1` was tested, and the survivor count [5] was 2 of 6 and 3 of 6, the survivor count [6] was 0 of 6 and the survivor count [7] was 0 of 6. The survivor count [8] was 0 of 6, the survivor count [9] was 0 of 6 and the survivor count [10] was 0 of 6.

For `N#Cc1ccc(OC(=O)Nc2c(Cl)cc(Cl)cc2Cl)cc1`, the survivor count [15] was 6 of 6.

In the case of `CCOC(=O)Nc1cc2c(c(N)n1)N=C(c1ccccc1)CN2`, the T/C (dose: 4.0 mg/kg/injection, schedule: Q04DX003 (ip), vehicle: saline with Tween-80) is reported as 127 % of control, the T/C (dose: 4.5 mg/kg/injection, schedule: Q04DX003 (ip), vehicle: saline with Tween-80) is reported as 132 % of control and the T/C (dose: 8.0 mg/kg/injection, schedule: Q01DX001 (ip), vehicle: saline with Tween-80) is reported as 125 and 125 % of control [9 of 10 alive]. The T/C (dose: 9.0 mg/kg/injection, schedule: Q04DX003 (ip), vehicle: saline with Tween-80) was 127 % of control [4 of 6 alive], the survivor count (dose: 12.0 mg/kg/injection, schedule: Q01DX005 (ip), vehicle: saline with Tween-80) was 0 of 6 and 2 of 6 and the survivor count (dose: 12.0 mg/kg/injection, schedule: Q01DX009 (ip), vehicle: saline with Tween-80) was 1 of 6. For the same compound, the T/C (dose: 18.0 mg/kg/injection, schedule: Q01DX001 (ip), vehicle: saline with Tween-80) was 125 % of control [9 of 10 alive], the survivor count (dose: 18.0 mg/kg/injection, schedule: Q04DX003 (ip), vehicle: saline with Tween-80) was 6 of 6 and the survivor count (dose: 25.0 mg/kg/injection, schedule: Q01DX001 (ip), vehicle: saline with Tween-80) was 3 of 6. For the same compound, the survivor count [16] was 0 of 6, the survivor count (dose: 25.0 mg/kg/injection, schedule: Q01DX009 (ip), vehicle: saline with Tween-80) was 0 of 6 and the survivor count (dose: 37.0 mg/kg/injection, schedule: Q04DX003 (ip), vehicle: saline with Tween-80) was 0 of 6. For the same compound, the survivor count (dose: 50.0 mg/kg/injection, schedule: Q01DX001 (ip), vehicle: saline with Tween-80) was 0 of 6, the survivor count [1] was 0 of 6 and the survivor count [17] was 0 of 6. For the same compound, the survivor count (dose: 75.0 mg/kg/injection, schedule: Q04DX003 (ip), vehicle: saline with Tween-80) was 0 of 6, the survivor count (dose: 100.0 mg/kg/injection, schedule: Q01DX001 (ip), vehicle: saline with Tween-80) was 0 of 6 and the survivor count [2] was 0 of 6. The survivor count [11] was 0 of 6, the survivor count (dose: 150.0 mg/kg/injection, schedule: Q04DX003 (ip), vehicle: saline with Tween-80) was 0 of 6 and the survivor count (dose: 200.0 mg/kg/injection, schedule: Q01DX001 (ip), vehicle: saline with Tween-80) was 0 of 6.

With `CCCCCCCCCCCCOCCCOP(=O)([O-])OCC[N+](C)(C)C` the survivor count [10] was 0 of 6.

`Cc1nc(C)n2cnnc2c1C` was tested, and the survivor count (dose: 400.0 mg/kg/injection, schedule: Q04DX003 (ip), vehicle: saline) was 0 of 6.

In the case of `Cc1ncc([N+](=O)[O-])n1CCOc1c(Cl)cc(Cl)cc1CN(C)C1CCCCC1`, the survivor count (dose: 50.0 mg/kg/injection, schedule: Q01DX005 (ip), vehicle: Klucel (hydroxypropylcellulose) (HPC)) is reported as 0 of 5, the survivor count (dose: 100.0 mg/kg/injection, schedule: Q01DX005 (ip), vehicle: Klucel (hydroxypropylcellulose) (HPC)) is reported as 0 of 5 and the survivor count (dose: 200.0 mg/kg/injection, schedule: Q01DX005 (ip), vehicle: Klucel (hydroxypropylcellulose) (HPC)) is reported as 0 of 5.

With `Cc1cc(Cl)c2ccccc2c1N` the T/C (dose: 100.0 mg/kg/injection, schedule: Q01DX009 (ip), vehicle: other) was 125 % of control.

With `BrCC[N+]12CC[N+](CCBr)(CC1)C2` (tested in a mixture with another compound) the T/C (dose: 20.0 mg/kg/injection, schedule: Q04DX003 (ip), vehicle: water) was 125 % of control, the T/C (dose: 40.0 mg/kg/injection, schedule: Q04DX003 (ip), vehicle: water) was 140 % of control and the T/C (dose: 75.0 mg/kg/injection, schedule: Q04DX003 (ip), vehicle: water) was 126 % of control. The T/C (dose: 150.0 mg/kg/injection, schedule: Q04DX003 (ip), vehicle: water) was 148 % of control, the survivor count (dose: 200.0 mg/kg/injection, schedule: Q04DX003 (ip), vehicle: water) was 4 of 6 and the T/C (dose: 320.0 mg/kg/injection, schedule: Q04DX003 (ip), vehicle: distilled water + Tween-80) was 131 % of control [4 of 6 alive]. The survivor count (dose: 400.0 mg/kg/injection, schedule: Q04DX003 (ip), vehicle: water) was 0 of 6.

In the case of `CC1(C)c2ccccc2N2C(c3ccccc3)=NN(c3ccccc3)C21C` (configuration not stated), the survivor count [15] is reported as 6 of 6.

With `CN(C)C(=S)SSC(=S)N(C)C` the survivor count [14] was 2 of 6 and the survivor count (dose: 400.0 mg/kg/injection, schedule: Q01DX009 (ip), vehicle: Klucel (hydroxypropylcellulose) (HPC)) was 0 of 6.

`Cc1c(Cc2ccccc2)[n+](=O)c2ccccc2n1[O-]` was tested, and the survivor count (dose: 600.0 mg/kg/injection, schedule: Q04DX003 (ip), vehicle: saline with Tween-80) was 3 of 6 and the survivor count (dose: 800.0 mg/kg/injection, schedule: Q01DX005 (ip), vehicle: Klucel (hydroxypropylcellulose) (HPC)) was 2 of 6.

For `SCc1ccccc1.[Cu+2]`, the survivor count [17] was 3 of 6, the survivor count [11] was 0 of 6 and the survivor count (dose: 200.0 mg/kg/injection, schedule: Q01DX009 (ip), vehicle: saline with Tween-80) was 0 of 6.

With `N#CC1CCCC(C#N)N1Cc1ccccc1` (configuration not stated) the survivor count [4] was 0 of 6.

`Cc1ccc(-n2cnc3c(N)nc(N)nc32)cc1` was tested, and the survivor count [16] was 0 of 6, the survivor count [1] was 0 of 5 and the survivor count [2] was 0 of 5. The survivor count [3] was 0 of 5.

With `COC1C(/C=C/C(C)=O)OC2OC(C)(C)OC21` (configuration not stated) the T/C [12] was 125 and 132 % of control and the survivor count [13] was 2 of 6.

In the case of `NCCCC(NN)C(=O)O` (configuration not stated), the T/C (dose: 15.0 mg/kg/injection, schedule: Q01DX009 (ip), vehicle: saline) is reported as 130 % of control.

Source: PubChem BioAssay AID330 (DTP/NCI, 2004)
